# Tested on: MDA-MB-231 cells
# Assay: Cell proliferation assay (WST-1), AGM-330-PTX
# Format: cell-based
# Settings: Homo sapiens, MDA-MB-231, 48 h
structure (smiles),measurement,value
"CC(=O)O[C@H]1C(=O)[C@@]2(C)[C@H]([C@H](OC(=O)c3ccccc3)[C@]3(O)C[C@H](OC(=O)[C@H](O)[C@@H](NC(=O)c4ccccc4)c4ccccc4)C(C)=C1C3(C)C)[C@]1(OC(C)=O)CO[C@@H]1C[C@@H]2O [PTX, Paclitaxel, reference compound]",IC50,6.8 µM
